Reference: article PMC3514216, “SRC Homology 2 Domain Binding Sites in Insulin, IGF-1 and FGF receptor mediated signaling networks reveal an extensive potential interactome” (Cell Communication and Signaling : CCS, 2012)
Results are given in words; binding and its absence hold for the method and conditions named.

Protein sequences, listed by entry. Tags and fused reporters are not part of them. Residues count along the entry.
UniProt P06241, residues 149-246: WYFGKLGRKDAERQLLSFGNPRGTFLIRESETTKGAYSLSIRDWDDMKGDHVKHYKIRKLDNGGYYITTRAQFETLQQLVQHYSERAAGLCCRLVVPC

Molecular target: T1, IRS-1 (Y1229) phosphopeptide DLSApYASISFQ, SPOT array
T1 sequence (peptide, phosphotyrosine at position 5 (Y1229); membrane-bound): DLSAYASISFQ
Assay: peptide or protein array; SPOT array of 192 membrane-bound 11-mer phosphotyrosine peptides; GST-SH2 0.25 uM in TBS-T with 5% nonfat milk and 1 mM DTT, 1.5 h, room temperature; anti-GST and Alexa-Fluor-680 secondary, Li-Cor Odyssey; array positive >3X the array mean, array negative <1X, indeterminate between; both purified

binding: no binding (tested: 0.25 uM)
Substance: GST-Fyn SH2 domain (from UniProt P06241 149-246) (domain or fragment)
